Hit rate of the full screen: of about 410,000 compounds, about 310 (0.076%) were called active. Only results without a clear call are listed here; the source files them as inconclusive. Calls come from the whole dose curve; as a rule, active = well fitted activation curve with a large enough effect; inconclusive = small, poorly fitted or top-dose-only effect, or another doubt; inactive = no such curve, though single readings can be large or run the other way.
Target: Parathyroid hormone/parathyroid hormone-related peptide receptor (Homo sapiens) (UniProt Q03431)
Test: qHTS for PTHR1 Agonists: Primary Screen; note: nearly all actives have a fitted effect of over 55% in size
Details: HEK293 GP2 PTHR1 cells, GloSensor cAMP luminescence, 1 h

Chains of the proteins cited; added tags and fusions are not shown.
UniProt Q03431, whole entry: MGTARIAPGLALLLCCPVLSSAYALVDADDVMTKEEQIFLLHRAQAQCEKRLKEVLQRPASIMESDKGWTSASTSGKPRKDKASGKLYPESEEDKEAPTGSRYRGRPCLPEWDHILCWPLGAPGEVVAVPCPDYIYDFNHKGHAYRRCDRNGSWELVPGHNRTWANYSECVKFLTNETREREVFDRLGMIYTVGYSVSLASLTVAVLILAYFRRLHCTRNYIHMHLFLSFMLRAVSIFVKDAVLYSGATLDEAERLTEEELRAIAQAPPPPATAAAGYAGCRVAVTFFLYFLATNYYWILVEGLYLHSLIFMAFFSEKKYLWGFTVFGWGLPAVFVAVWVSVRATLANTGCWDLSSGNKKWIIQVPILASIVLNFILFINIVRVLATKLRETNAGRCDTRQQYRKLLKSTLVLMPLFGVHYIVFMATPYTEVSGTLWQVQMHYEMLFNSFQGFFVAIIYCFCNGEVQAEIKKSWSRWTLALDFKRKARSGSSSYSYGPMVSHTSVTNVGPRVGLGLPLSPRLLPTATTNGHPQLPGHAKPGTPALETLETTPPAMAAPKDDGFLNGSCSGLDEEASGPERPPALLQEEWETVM

How did the outcome turn out when CP(=O)(Nc1ccc2c(c1)OCCO2)Oc1ccccc1 (stereo unspecified) was run?
Its outcome is “inconclusive”.
